Laboratory results from patent EP1200464B1, “[…] PEPTIDES IMMU[…] […] A VIRUS ANTIBODIES” (The Government of the United States of America, as …, priority 1999, dated 2006).
Part of at least one peptide drawing is inferred or uncertain, most often the ends. Some compounds share one wording; it may come from a single statement. Where no end group is shown, it is not given here.

What was measured:
anti-HAV IgM antibodies = test: Enzyme immunoassay of artificially designed synthetic peptides against a panel of 32 anti-HAV IgM-positive sera and 40 anti-HAV negative sera; assay type: binding
[1] = test system: anti-HAV IgM positive sera; test: Enzyme immunoassay of synthetic peptide with a panel of anti-HAV positive sera from acutely HAV-infected patients; assay type: binding
[2] = panel of 32 anti-HAV IgM-positive sera and 40 anti-HAV negative sera

Compound: C[C@H](N)C(=O)N[C@@H](C)C(=O)N[C@@H](C)C(=O)N[C@@H](C)C(=O)N[C@@H](C)C(=O)N[C@@H](C)C(=O)N[C@@H](C)C(=O)N[C@@H](C)C(=O)N[C@@H](C)C(=O)N[C@@H](C)C(=O)N[C@@H](C)C(=O)N[C@@H](C)C(=O)N[C@@H](C)C(=O)N[C@@H](C)C(=O)N[C@@H](C)C(=O)N[C@@H](C)C(=O)N[C@@H](C)C(=O)N[C@@H](C)C(=O)N[C@@H](C)C(=O)N[C@@H](C)C(=O)O [A]
- immunoreactivity with anti-HAV IgM antibodies (anti-HAV IgM antibodies; [2]): negative reactivity

Compound: C[C@H](N)C(=O)N[C@@H](C)C(=O)N[C@@H](C)C(=O)N[C@@H](C)C(=O)N[C@@H](C)C(=O)N[C@@H](C)C(=O)N[C@@H](C)C(=O)N[C@@H](C)C(=O)N[C@@H](C)C(=O)N[C@@H](C)C(=O)N[C@@H](C)C(=O)N[C@@H](C)C(=O)N[C@@H](C)C(=O)N[C@@H](C)C(=O)N[C@@H](C)C(=O)N[C@@H](C)C(=O)N[C@@H](C)C(=O)N[C@@H](C)C(=O)N[C@@H](C)C(=O)N[C@@H](C)C(=O)N[C@@H](CCC(N)=O)C(=O)O [AQ]
- immunoreactivity with anti-HAV IgM antibodies (anti-HAV IgM antibodies; [2]): specific immunoreactivity

Compound: NCC(=O)NCC(=O)NCC(=O)NCC(=O)NCC(=O)NCC(=O)NCC(=O)NCC(=O)NCC(=O)NCC(=O)NCC(=O)NCC(=O)NCC(=O)NCC(=O)NCC(=O)NCC(=O)NCC(=O)NCC(=O)NCC(=O)NCC(=O)N[C@@H](CCC(N)=O)C(=O)O [GQ]
- immunoreactivity with anti-HAV IgM antibodies (anti-HAV IgM antibodies; [2]): specific immunoreactivity

Compound: GGGGGAAAAAGGGGGAAAAAQ [Peptide GAQ]
- anti-HAV positive sera whose IgM antibodies immunoreacted with the peptide (anti-HAV IgM antibodies; 32 anti-HAV IgM-positive sera): 75%
- immunoreactivity with negative control sera (anti-HAV IgM antibodies; 40 anti-HAV negative sera): failed to show any immunoreactivity
- breadth of immunoreactivity among the peptides tested (anti-HAV IgM antibodies; [2]): broadest immunoreactivity
- immunoreactivity with anti-HAV IgM antibodies (anti-HAV IgM antibodies; [2]): specific immunoreactivity

Compound: GGGGGAAAAAGGGGGAAAAA [Peptide GA]
- immunoreactivity with anti-HAV IgM antibodies (anti-HAV IgM antibodies; [2]): negative reactivity

Compound: CSCC[C@H](NC(=O)[C@H](CCCCN)NC(=O)[C@H](CCCNC(=N)N)NC(=O)[C@@H]1CCCN1C(=O)[C@@H]1CCCN1C(=O)[C@@H]1CCCN1C(=O)[C@H](CC(C)C)NC(=O)[C@@H](NC(=O)[C@H](CCC(=O)O)NC(=O)[C@H](CC(N)=O)NC(=O)[C@H](CO)NC(=O)[C@H](CC(C)C)NC(=O)[C@H](CCC(=O)O)NC(=O)[C@H](CCC(=O)O)NC(=O)[C@H](CCC(N)=O)NC(=O)[C@H](C)NC(=O)[C@H](Cc1ccc(O)cc1)NC(=O)[C@H](CCCCN)NC(=O)[C@H](CC(C)C)NC(=O)[C@H](CCCNC(=N)N)NC(=O)[C@@H](N)CCC(N)=O)C(C)C)C(=O)N[C@@H](CCCCN)C(=O)NCC(=O)N[C@@H](CC(C)C)C(=O)N[C@@H](Cc1ccccc1)C(=O)N[C@@H](CCC(N)=O)C(=O)O [SEQ ID NO 47]
- anti-HAV IgM positive sera reacting with the peptide ([1]; sera obtained from acutely HAV-infected patients): up to 97%
- reactivity with serum specimens not reactive with the same peptide lacking the C-terminal Q or not reactive with peptide GAQ ([1]; some serum specimens of the panel): demonstrated reactivity
